Data as given in PubChem BioAssay AID652259 (Drosophila RNAi Screening Center, 2013).

- Purpose: 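Knock-downs that push a Wingless-driven reporter up or down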 (primary screen)
- System: Drosophila clone 8 imaginal disc epithelial cells
- Reagent: long dsRNA against Drosophila genes
- Challenge: pathway stimulated by co-transfected Wingless expression plasmid
- Detection: 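Firefly luciferase from a tcf-site Wingless reporter, measured alongside co-transfected Renilla luciferase that tracks transfection; pathway stimulated by a Wingless plasmid; the firefly-to-Renilla ratio is not deposited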
- Scale: firefly reporter light: higher = more Wg reporter light, before normalisation; Renilla control light: higher = more transfected or surviving cells
- Hit rule: 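Strong candidates differ from their plate mean by at least two out of four per-plate statistical tests; weak candidates meet just one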
- Meaning of the calls: active = candidate regulator (raises or lowers reporter); inactive = not a candidate
The deposit covers about 22,000 reagents; shown is a random part of those with a known target gene and a result. Over the whole deposit, 233 (1.1%) are marked active. 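Light values are raw, unnormalised plate reads; the ratio scores behind the reporter calls were not deposited.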 A number with no mark means an inactive call. The numbers tell different reagents against one gene apart. Not given: the amount of reagent, the time to read-out, the dose of the treatment.

firefly reporter light, replicate 1 | firefly reporter light, replicate 2 | Renilla control light, replicate 1 | Renilla control light, replicate 2 | gene knocked down | dsRNA no.
5944 | – | 2936 | – | l(3)72Dp (GeneID 317887) | 1
29095 | – | 8241 | – | CG4000 (GeneID 42451) | 1
6.39e5 | 5.98e5 | 2.43e5 | 2.04e5 | CG4000 (GeneID 42451) | 2
3035 | – | 1847 | – | Prosbeta7 (GeneID 40639) | 1
8137 | – | 2384 | – | EMC2B (GeneID 42045) | 1
11552 | – | 8156 | – | CG41099 (GeneID 3355072) | 1
12736 | – | 8064 | – | CG41099 (GeneID 3355072) | 2
8264 | – | 3574 | – | CG13064 (GeneID 2768963) | 1
15850 | – | 10578 | – | G9a (GeneID 30971) | 1
6041 | – | 2355 | – | CG32454 (GeneID 318037) | 1
16376 | – | 7488 | – | Socs16D (GeneID 32760) | 1
10216 | – | 3794 | – | Grx1 (GeneID 40053) | 1
6672 | – | 2349 | – | CG13455 (GeneID 39667) | 1
6890 | – | 2614 | – | Best4 (GeneID 39660) | 1
4864 | – | 2084 | – | CG7763 (GeneID 36235) | 1
18747 | – | 5206 | – | Jra (GeneID 36057) | 1
21704 | – | 9053 | – | CG30429 (GeneID 246609) | 1
928 | 6980 | 904 | 2770 | Tcs5 (GeneID 38600) | 1
21136 | – | 6464 | – | tey (GeneID 40146) | 1
4.14e5 | 4.52e5 | 1.66e5 | 1.82e5 | tey (GeneID 40146) | 2
2880 | 4816 | 1179 | 2009 | Ir40a (GeneID 35449) | 1
3366 | 7453 | 1037 | 2146 | Ir40a (GeneID 35449) | 2
5.35e5 | 6.73e5 | 2.34e5 | 2.65e5 | UQCR-11L (GeneID 246560) | 1
16413 | – | 15259 | – | CG5510 (GeneID 42872) | 1
8163 | – | 3373 | – | nwk (GeneID 39052) | 1
736 | 10345 | 835 | 3152 | nwk (GeneID 39052) | 2
6329 | – | 2806 | – | janA (GeneID 43569) | 1
3700 | – | 1328 | – | CG6652 (GeneID 39905) | 1
18456 | – | 18753 | – | CG5913 (GeneID 43132) | 1
